Reference: US20210346401A1, “REGULATOR OF TGR5 SIGNALING AS IMMUNOMODULATORY AGENT” (YICHANG HUMANWELL PHARMACEUTICAL CO., LTD, priority 2018, published 2021)
These are yes or no findings as the source states them, for the method shown. In cells and extracts the contact can be indirect. Some results given as binding are weak or reduced against the parent protein; the word gives no strength.

Chains of the proteins cited; added tags and fusions are not shown.
UniProt P43250: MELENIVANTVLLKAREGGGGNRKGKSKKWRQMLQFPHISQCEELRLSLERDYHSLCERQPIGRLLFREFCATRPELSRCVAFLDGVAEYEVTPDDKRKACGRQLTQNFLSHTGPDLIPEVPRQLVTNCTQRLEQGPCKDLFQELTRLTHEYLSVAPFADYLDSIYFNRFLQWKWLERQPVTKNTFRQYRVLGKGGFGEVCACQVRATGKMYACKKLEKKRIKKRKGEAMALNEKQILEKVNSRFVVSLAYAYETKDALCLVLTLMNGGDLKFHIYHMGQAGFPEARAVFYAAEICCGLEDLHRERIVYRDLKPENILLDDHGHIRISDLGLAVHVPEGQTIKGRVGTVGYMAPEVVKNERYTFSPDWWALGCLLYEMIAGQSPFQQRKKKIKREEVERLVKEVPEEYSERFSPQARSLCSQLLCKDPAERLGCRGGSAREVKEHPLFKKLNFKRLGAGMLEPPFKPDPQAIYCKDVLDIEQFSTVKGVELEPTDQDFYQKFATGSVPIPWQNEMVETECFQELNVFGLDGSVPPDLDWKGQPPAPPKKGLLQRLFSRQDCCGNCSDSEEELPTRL
UniProt P49407: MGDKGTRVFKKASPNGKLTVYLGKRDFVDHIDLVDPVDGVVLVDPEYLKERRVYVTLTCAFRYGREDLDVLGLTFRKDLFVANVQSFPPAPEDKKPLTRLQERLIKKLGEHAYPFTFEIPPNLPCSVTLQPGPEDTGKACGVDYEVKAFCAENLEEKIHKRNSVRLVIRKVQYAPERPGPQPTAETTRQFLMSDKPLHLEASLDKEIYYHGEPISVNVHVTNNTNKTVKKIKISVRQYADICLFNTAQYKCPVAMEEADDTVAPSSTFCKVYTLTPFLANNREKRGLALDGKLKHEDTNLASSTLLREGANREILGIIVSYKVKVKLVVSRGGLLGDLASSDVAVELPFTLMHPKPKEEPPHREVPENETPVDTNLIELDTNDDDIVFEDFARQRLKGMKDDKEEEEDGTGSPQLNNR

Columns and labels:
[1] = target: T1, TGR5 (endogenous, HEK293 cells) (UniProt Q8TDU6); experiment: endogenous coimmunoprecipitation after viral infection
T1 sequence (looked up): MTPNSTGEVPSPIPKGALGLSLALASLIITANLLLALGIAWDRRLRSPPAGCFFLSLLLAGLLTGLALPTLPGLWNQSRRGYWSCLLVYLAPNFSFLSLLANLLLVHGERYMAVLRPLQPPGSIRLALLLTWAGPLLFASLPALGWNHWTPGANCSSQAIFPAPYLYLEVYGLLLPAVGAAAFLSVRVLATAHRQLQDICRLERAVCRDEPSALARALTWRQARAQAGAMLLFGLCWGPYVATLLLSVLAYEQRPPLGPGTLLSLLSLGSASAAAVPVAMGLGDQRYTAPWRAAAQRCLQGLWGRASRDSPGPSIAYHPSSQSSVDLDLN

[2] = target: T1, TGR5 (endogenous, HEK293 cells); experiment: endogenous coimmunoprecipitation with TGR5 antibodies, SeV-infected HEK293 cells, immunoblot

| Substance | binding [1] | binding [2] |
| --- | --- | --- |
| GRK6 (endogenous, HEK293 cells) (from UniProt P43250 1-576) (enzyme) | binds | binds |
| β-arrestin1 (endogenous, HEK293 cells) (from UniProt P49407 1-418) | binds | binds |
